This passage reports survivor count and T/C results from PubChem BioAssay AID192 (DTP/NCI, 2004).

Each structure is given as a SMILES string. The list is a part of this screen's results and no random one: it gathers tests that were run many times, whatever their T/C, doses with no T/C, and many T/C values between a quarter and a half above the control. Other doses and runs of a compound stand elsewhere. T/C: endpoint of the treated group in % of that of the vehicle group. Some entries give survivors of the animals treated and no T/C: the source files T/C as zero there, which appears to mark a toxic dose or a test without result, not a measured value. Some survivor counts are full or nearly so, which does not show that the dose was tolerated: the source hardly ever lists a survival T/C far under the control, and the zero likely stands for such cases as well. Counts of survivors are from the toxicity check (mostly the fifth day) where no day follows; animals may have died later. Schedule codes are those of the source, read here as Q, the interval in days (D) or hours (H), X, the number of doses. Where survival is the endpoint, the PubChem record calls one and a half times the control and up active, and a quarter to a half above the control has no call in these data; cut-offs in other NCI protocols can differ.

The subject of the assay is BDF1 mice, B16 melanoma ip, median survival T/C. As to the kind of experiment: NCI In Vivo Anticancer Drug Screen. Data for tumor model B16 Melanoma (intraperitoneal) in B6D2F1 (BDF1) mice. The note with it: T/C endpoint: median survival time, higher T/C = longer survival. Summed up: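 The ratio T/C compares compound-treated mice with vehicle-treated controls, using survival or tumor size as the endpoint in a transplantable tumor model.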

Setting [1] is: dose: 100.0 mg/kg/injection, schedule: Q01DX009 (ip), vehicle: saline with Tween-80.

As for `CC[CH2][Pb]([Cl])([CH2]CC)[CH2]CC`, the survivor count (dose: 0.18 mg/kg/injection, schedule: Q01DX009 (ip), vehicle: DMSO) is listed as 10 of 10; the survivor count (dose: 0.37 mg/kg/injection, schedule: Q01DX009 (ip), vehicle: DMSO) is 10 of 10; the survivor count (dose: 0.75 mg/kg/injection, schedule: Q01DX009 (ip), vehicle: DMSO) was 10 of 10; the survivor count (dose: 5.0 mg/kg/injection, schedule: Q01DX009 (ip), vehicle: DMSO) is given as 10 of 10; the survivor count (dose: 10.0 mg/kg/injection, schedule: Q01DX009 (ip), vehicle: DMSO) is reported as 10 of 10; the survivor count (dose: 12.5 mg/kg/injection, schedule: Q01DX009 (ip), vehicle: DMSO) is listed as 0 of 8. The survivor count runs as follows: (dose: 20.0 mg/kg/injection, schedule: Q01DX009 (ip), vehicle: DMSO) 9 of 10; (dose: 25.0 mg/kg/injection, schedule: Q01DX009 (ip), vehicle: DMSO) 0 of 8; (dose: 50.0 mg/kg/injection, schedule: Q01DX009 (ip), vehicle: DMSO) 0 of 7; (dose: 0.6 micrograms/kg/injection, schedule: Q01DX009 (ip), vehicle: DMSO) 10 of 10; (dose: 1.2 micrograms/kg/injection, schedule: Q01DX009 (ip), vehicle: DMSO) 9 of 10; (dose: 2.5 micrograms/kg/injection, schedule: Q01DX009 (ip), vehicle: DMSO) 9 of 9. For the same compound, the survivor count is recorded as 9 of 9 (dose: 22.0 micrograms/kg/injection, schedule: Q01DX009 (ip), vehicle: DMSO); 10 of 10 (dose: 45.0 micrograms/kg/injection, schedule: Q01DX009 (ip), vehicle: DMSO); 9 of 9 (dose: 90.0 micrograms/kg/injection, schedule: Q01DX009 (ip), vehicle: DMSO); 8 of 9 (dose: 180.0 micrograms/kg/injection, schedule: Q01DX009 (ip), vehicle: DMSO).
`CCC(c1ccc(OC(=O)Cc2ccc(N(CCCl)CCCl)cc2)cc1)C(CC)c1ccc(OC(=O)Cc2ccc(N(CCCl)CCCl)cc2)cc1` (stereo not given): the survivor count is, setting by setting: (dose: 80.0 mg/kg/injection, schedule: Q01DX009 (ip), vehicle: saline with Tween-80) 10 of 10; (dose: 100.0 mg/kg/injection, schedule: Q01DX009 (ip), vehicle: Klucel (hydroxypropylcellulose) (HPC)) 10 of 10; (dose: 120.0 mg/kg/injection, schedule: Q01DX009 (ip), vehicle: saline with Tween-80) 10 of 10; (dose: 128.0 mg/kg/injection, schedule: Q02DX009 (ip), vehicle: saline with Tween-80) 10 of 10; (dose: 180.0 mg/kg/injection, schedule: Q01DX009 (ip), vehicle: saline with Tween-80) 10 of 10; (dose: 200.0 mg/kg/injection, schedule: Q01DX009 (ip), vehicle: Klucel (hydroxypropylcellulose) (HPC)) 10 of 10. The survivor count is, setting by setting: (dose: 256.0 mg/kg/injection, schedule: Q02DX009 (ip), vehicle: saline with Tween-80) 10 of 10; (dose: 270.0 mg/kg/injection, schedule: Q01DX009 (ip), vehicle: saline with Tween-80) 10 of 10; (dose: 400.0 mg/kg/injection, schedule: Q01DX009 (ip), vehicle: Klucel (hydroxypropylcellulose) (HPC)) 10 of 10; (dose: 405.0 mg/kg/injection, schedule: Q01DX009 (ip), vehicle: saline with Tween-80) 10 of 10; (dose: 512.0 mg/kg/injection, schedule: Q02DX009 (ip), vehicle: saline with Tween-80) 10 of 10.
On to `CCCNC1=C(N2CC2)C(=O)C(NCCC)=C(N2CC2)C1=O`, for which the T/C is 125 % of control (dose: 2.5 mg/kg/injection, schedule: Q01DX009 (ip), vehicle: saline) and 136 % of control (dose: 5.0 mg/kg/injection, schedule: Q01DX009 (ip), vehicle: saline). Also, for the setting “dose: 10.0 mg/kg/injection, schedule: Q01DX009 (ip), vehicle: saline”, the survivor count is recorded as 10 of 10.
Consider `O=C1c2ccccc2C(Cl)=C(Cl)C1(Cl)Cl`, for which the survivor count is 10 of 10 (dose: 50.0 mg/kg/injection, schedule: Q04DX003 (ip), vehicle: Klucel (hydroxypropylcellulose) (HPC)); 10 of 10 (dose: 100.0 mg/kg/injection, schedule: Q04DX003 (ip), vehicle: Klucel (hydroxypropylcellulose) (HPC)); 9 of 10 (dose: 200.0 mg/kg/injection, schedule: Q04DX003 (ip), vehicle: Klucel (hydroxypropylcellulose) (HPC)).
With `C/C(=C\c1ccccc1Cl)[N+](=O)[O-]`, the survivor count (dose: 150.0 mg/kg/injection, schedule: Q01DX009 (ip), vehicle: Klucel (hydroxypropylcellulose) (HPC)) is 7 of 10.
Take `CC(=N/NC(N)=S)/C(C)=N/NC(N)=S`: where the note is “dose: 400.0 mg/kg/injection, schedule: Q01DX009 (ip), vehicle: saline”, the T/C was 126 % of control.
`CC1(C)OC2C(COC(=O)c3ccc([N+](=O)[O-])cc3)OC(NC(=O)N(CCCl)N=O)C2O1` (stereo not given): the T/C was 137 % of control (dose: 6.25 mg/kg/injection, schedule: Q01DX009 (ip), vehicle: saline with Tween-80); 141 % of control (dose: 12.5 mg/kg/injection, schedule: Q01DX009 (ip), vehicle: saline with Tween-80); 134 % of control (dose: 50.0 mg/kg/injection, schedule: Q01DX009 (ip), vehicle: saline with Tween-80); 147 % of control under setting [1]. Under setting [1], the survivor count is given as 10 of 10.
